Assay results taken from PubChem BioAssay AID540276 (National Center for Advancing Translational Sciences (NCATS), 2011).
Values joined by “and” are separate entries in the source; they are usually repeats but may differ in a detail not shown here. Identical values can stand only once. The whole screen tested about 300,000 compounds, of which about 5,400 (1.8%) were called active. Inconclusive results, whose numbers are uncertain, are shown with a selection of clear calls. The call rests on the fitted dose curve; tested in HEK293 cells. Potencies of inconclusive entries are doubtful fits and often do not repeat.

Assay: qHTS for inhibitors of binding or entry into cells for Marburg Virus
Details: Marburg virus pseudotyped entry inhibition, cell reporter; activity change, negative = inhibition: at 37.8 µM (top of the series) unless noted
On the % scale 0 is the no-effect control and ±100 the full control effect; potency means the concentration at half of the fitted maximal effect.

Compound	Potency	activity change, negative = inhibition
COc1ccc(C(=S)N2CCN(c3cccc(Cl)c3)CC2)c(OC)c1	inconclusive: 3.98 µM [inhibitor, full curve, poor fit]	–
COc1ccc(NC(=S)NC(NC(=O)c2cccc3ccccc23)C(Cl)(Cl)Cl)c([N+](=O)[O-])c1 (stereo not given)	inconclusive: 13 µM [inhibitor, partial curve]	–
O=S(=O)(Nc1nc2ccc(S(=O)(=O)N3CCCC3)cc2s1)c1ccc(F)cc1	–	inactive: 2.34%
CN(Cc1ccccc1)C1=CC(=[N+]2CCCC2)CC(C)(C)C1	inconclusive: 2 µM [inhibitor, full curve, poor fit]	–
Cc1ccccc1OCC(=O)N(Cc1ccc(C(C)C)cc1)C1CCS(=O)(=O)C1 (stereo not given)	–	inactive: -16.1% [at 46.1 µM]
CCCSC(=O)N(CC)CC(=O)Nc1c(CC)cccc1CC	–	inactive: -15.8%
O=C(NC(=S)Nc1ccccc1Br)C1CCCCC1	–	inactive: -1.74%
Cc1ccc(S(=O)(=O)N(C)C)cc1NC(=O)COC(=O)/C=C/c1ccc(F)cc1	–	inactive: 12.8%
O=C(NCc1ccc(Cl)cc1)c1cc(-c2ccc(F)cc2)on1	inconclusive: 5.62 µM [activator, single point]	–
CCCCN=C1NN=C(c2cc3ccccc3o2)CS1	–	inactive: 5.42% [at 46.1 µM]
CCc1ccccc1NC(=O)Cn1nnc(-c2cccnc2)n1	–	inactive: -7.61%
COc1ccc(CCNc2cc(-c3ccccc3)nc3ncnn23)cc1	inconclusive: 14.1 µM [inhibitor, single point]	–
CSc1ccccc1NC(=O)CO/N=C(\C)c1cc2ccccc2o1	inconclusive: 23.1 µM [inhibitor, single point]	–
Cc1cc(C)n2nc(SC(C)C(=O)N3CCOCC3)nc2n1 (stereo not given)	inconclusive: 35.5 µM [inhibitor, single point]	–
C[N+](C)(C)CC#CCOC(=O)Nc1cccc(Cl)c1	inconclusive: 25.9 µM [activator, partial curve, poor fit] and inconclusive: 794 nM [inhibitor, full curve]	–
CCC(c1nnc(SCC(=O)Nc2ccc(Cl)cc2C(F)(F)F)n1C1CCCCC1)N(C)C (stereo not given)	inconclusive: 35.5 µM [inhibitor, single point]	–
O=C(CSc1nnc(COc2ccc(Cl)cc2Cl)o1)Nc1ccccn1	–	inactive: -0.546%
NS(=O)(=O)c1ccc(NC2=CC(=O)C(=O)c3ccccc32)cc1	–	inactive: 5.34% [at 46.1 µM]
CCOc1ccc(NC(=S)NNC(=S)Nc2cccc(C(F)(F)F)c2)cc1	inconclusive: 3.98 µM [inhibitor, single point]	–
